From publication PMC6451096, “Molecular basis for transfer RNA recognition by the double-stranded RNA-binding domain of human dihydrouridine synthase 2” come the findings set out here.

Amino acid sequences for entries named in this document (tags omitted).
UniProt Q9NX74: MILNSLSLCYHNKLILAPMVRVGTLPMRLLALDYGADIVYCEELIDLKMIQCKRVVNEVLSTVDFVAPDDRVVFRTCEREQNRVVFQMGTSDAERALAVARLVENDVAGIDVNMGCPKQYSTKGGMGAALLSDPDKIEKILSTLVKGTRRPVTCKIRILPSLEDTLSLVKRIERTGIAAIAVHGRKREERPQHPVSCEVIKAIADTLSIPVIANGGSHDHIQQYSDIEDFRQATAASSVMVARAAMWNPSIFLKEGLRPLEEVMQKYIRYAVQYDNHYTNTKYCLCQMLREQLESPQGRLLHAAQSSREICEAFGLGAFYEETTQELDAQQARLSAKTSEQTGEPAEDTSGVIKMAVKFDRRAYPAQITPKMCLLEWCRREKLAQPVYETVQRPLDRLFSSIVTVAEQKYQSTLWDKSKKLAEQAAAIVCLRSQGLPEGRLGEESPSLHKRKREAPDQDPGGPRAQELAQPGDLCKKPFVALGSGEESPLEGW

In the test the target is human dihydrouridine synthase 2 (human) (UniProt Q9NX74). The test can be described thus: SEC-MALS; SEC-MALLS on Superdex 200 10/300 GL (Shimadzu Prominence HPLC, MiniDAWN TREOS, Optilab T-rEX); full length hDus2 free in solution; both purified. For orientation: In gel filtration, larger molecules generally elute earlier.

No constants are given. Whether binding was seen depends on the method and setting.

On to “human dihydrouridine synthase 2 (from UniProt Q9NX74 1-493) (enzyme)”, for which the binding result is “no binding”.
